This note sets out measurements from paper PMC9922819.

Protein sequences, listed by entry. Tags and fused reporters are not part of them. Lines headed by an entry give the natural chain unless they say otherwise; changes in a name come on top. Chains listed by the source or under a name are the forms on record and can include a tag or linker. Residues count along the entry.
UniProt Q96D31: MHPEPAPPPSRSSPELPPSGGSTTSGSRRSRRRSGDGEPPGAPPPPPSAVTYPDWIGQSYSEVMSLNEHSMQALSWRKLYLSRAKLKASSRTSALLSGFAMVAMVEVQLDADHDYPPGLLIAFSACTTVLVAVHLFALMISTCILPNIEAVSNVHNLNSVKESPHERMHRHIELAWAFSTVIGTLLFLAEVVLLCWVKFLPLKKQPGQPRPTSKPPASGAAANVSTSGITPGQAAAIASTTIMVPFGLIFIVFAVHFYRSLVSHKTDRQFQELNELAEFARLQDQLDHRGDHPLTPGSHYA
Orai1α N-terminal deletion mutant Orai1αΔN1–38 (pEYFP): residues 39-301 of Q96D31
Orai1β-eGFP (CMV-promoter): residues 64-301 of Q96D31
PKCβ2 (P05771-2, form named): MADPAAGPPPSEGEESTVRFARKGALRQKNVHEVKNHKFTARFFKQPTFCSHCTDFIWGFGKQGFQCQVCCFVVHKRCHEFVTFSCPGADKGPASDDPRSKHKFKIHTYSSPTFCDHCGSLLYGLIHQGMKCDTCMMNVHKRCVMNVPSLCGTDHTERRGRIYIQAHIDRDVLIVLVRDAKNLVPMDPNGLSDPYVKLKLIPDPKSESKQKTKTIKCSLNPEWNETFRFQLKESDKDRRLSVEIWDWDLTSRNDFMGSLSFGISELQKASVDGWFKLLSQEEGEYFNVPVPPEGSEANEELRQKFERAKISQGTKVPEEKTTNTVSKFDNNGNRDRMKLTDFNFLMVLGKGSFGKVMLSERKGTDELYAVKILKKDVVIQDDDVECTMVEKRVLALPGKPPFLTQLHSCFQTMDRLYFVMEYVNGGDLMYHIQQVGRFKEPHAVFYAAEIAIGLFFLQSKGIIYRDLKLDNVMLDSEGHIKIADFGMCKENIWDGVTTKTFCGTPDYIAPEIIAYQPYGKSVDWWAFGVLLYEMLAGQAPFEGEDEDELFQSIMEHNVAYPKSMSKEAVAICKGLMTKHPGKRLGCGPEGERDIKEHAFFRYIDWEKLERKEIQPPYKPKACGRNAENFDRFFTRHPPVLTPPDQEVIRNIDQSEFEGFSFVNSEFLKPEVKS

No constants are given. Whether binding was seen depends on the method and setting. In cells and extracts the contact can be indirect. Some entries that bind do so weakly or less than the wild type.

Common to all, as to test: co-IP; cell lysates (1% Nonidet P-40 buffer pH 8, 137 mM NaCl, 2 mM EDTA) immunoprecipitated with anti-Orai1 antibody and protein A-agarose overnight at 4 °C, blotted with anti-PKCβ2; cells at rest or stimulated with 100 μM CCh (1-30 min; 5 min for the variants) in the presence of extracellular …
The target of experiment [1] is native Orai1 (human (endogenous in HEK-293)) (UniProt Q96D31).
The target of experiment [2] is Orai1α N-terminal deletion mutant Orai1αΔN1–38 (pEYFP) (UniProt Q96D31).
For experiment [3], the target named is Orai1β-eGFP (CMV-promoter) (UniProt Q96D31).
In experiment [4] the target is Orai1α-eGFP (CMV-promoter) (UniProt Q96D31).

“PKCβ2 (from UniProt P05771-2 1-673) (enzyme)”: the binding result is on record as “binds” in experiment [1], “binds” in experiment [2], “no binding” in experiment [3] and “binds” in experiment [4].
